Results of single-concentration screens

The chains behind the UniProt entries cited, without tags or fusion partners. Residues count along the entry.
UniProt P9WFT3, whole entry: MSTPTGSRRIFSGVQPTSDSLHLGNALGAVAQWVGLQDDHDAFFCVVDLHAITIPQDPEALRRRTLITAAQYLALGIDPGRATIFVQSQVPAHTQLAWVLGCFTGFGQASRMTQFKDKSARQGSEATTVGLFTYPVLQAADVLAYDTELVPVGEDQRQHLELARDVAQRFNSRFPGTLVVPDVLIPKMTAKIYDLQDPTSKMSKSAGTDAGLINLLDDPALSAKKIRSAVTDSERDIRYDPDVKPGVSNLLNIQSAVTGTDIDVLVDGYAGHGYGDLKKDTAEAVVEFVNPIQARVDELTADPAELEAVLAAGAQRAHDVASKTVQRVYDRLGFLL
UniProt Q4DA54, 1-478: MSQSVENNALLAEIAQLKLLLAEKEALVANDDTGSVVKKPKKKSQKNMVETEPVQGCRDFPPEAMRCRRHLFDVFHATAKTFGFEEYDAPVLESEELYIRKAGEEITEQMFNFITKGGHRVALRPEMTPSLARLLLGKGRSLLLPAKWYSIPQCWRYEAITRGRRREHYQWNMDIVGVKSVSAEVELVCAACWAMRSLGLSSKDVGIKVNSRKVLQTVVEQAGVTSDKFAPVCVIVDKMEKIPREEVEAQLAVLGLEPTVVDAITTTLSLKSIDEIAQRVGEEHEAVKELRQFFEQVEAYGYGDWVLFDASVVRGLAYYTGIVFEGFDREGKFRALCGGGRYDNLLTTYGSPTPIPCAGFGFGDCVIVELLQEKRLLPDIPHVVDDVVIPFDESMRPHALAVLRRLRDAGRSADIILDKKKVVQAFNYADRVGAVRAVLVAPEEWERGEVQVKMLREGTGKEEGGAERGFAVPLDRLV

Measurements from “University of Dundee, Small-Polar-MMV Screening Library” (2021), ChEMBL document CHEMBL3988442.

MtTrpRS: 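Enzyme assay of tryptophanyl-tRNA synthetase; the read-out is not stated. Target: Tryptophan-tRNA ligase, Mycobacterium tuberculosis (UniProt P9WFT3). Concentration: 10 µM. Direction is not recorded; retested compounds ran higher, which suggests that high means inhibition. About 65,000 compounds were tested under these conditions; 0.098% (about 64) showed 50% or more at least once.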
Leishmania in macrophages: 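Cell assay of Leishmania donovani living inside macrophages; the read-out is not stated. Concentration: 30 µM. The record gives no direction; compounds that gave an IC50 in retests scored well above the rest, so higher reads as stronger inhibition. Of about 69,000 compounds tested this way, about 1,000 (1.5%) reached 50% or more in at least one test.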
TcHisRS: 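Enzyme assay of histidyl-tRNA synthetase; the read-out is not stated. Target: Histidine-tRNA ligase, Trypanosoma cruzi CL Brener (UniProt Q4DA54). Concentration: 30 µM. The record gives no direction; compounds that gave an IC50 in retests scored well above the rest, so higher reads as stronger inhibition. About 69,000 compounds were tested under these conditions; 0.045% (about 31) showed 50% or more at least once.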

Results are given as percent effect.
The record does not define 0% and 100%; most values in the screen are far below 50% and negative numbers occur (in some assays of this library far below -100).
Compounds were drawn at random from those tested, without regard to their results.

Result for CCc1c(C)nn(CCNC(=O)Cc2csc(C)n2)c1C was MtTrpRS: -3.307%; Leishmania in macrophages: 27.42%; TcHisRS: 8.081%. O=C(CCc1cnn(-c2ccccc2)c1)N1CCCC(n2cccn2)C1 (stereo unspecified) gave MtTrpRS: -2.987%; Leishmania in macrophages: 12.27%; TcHisRS: 4.183%. Cc1cc(-c2nn3c(C(C)C)nnc3s2)on1 gave MtTrpRS: 1.455%; Leishmania in macrophages: 18.09%; TcHisRS: 7%. Result for Cc1cnc(NC(=O)c2ccc(-n3ncc(C#N)c3N)cc2)s1 was MtTrpRS: 1.967%; Leishmania in macrophages: 5.833%; TcHisRS: 6.767%.

With COCCN1CCC2(COCc3cnc(N4CCOCC4)nc32)C1.O=C(O)C(F)(F)F (stereo unspecified) the screen gave Leishmania in macrophages: 13.11%. CNC(=O)[C@H]1C[C@H]2OCC[C@H]2N(CC2CC2)C1 gave MtTrpRS: -2.323%; TcHisRS: 4.478%. With CN1CCN(C2COC3(CCN(Cc4ccc(F)cc4)CC3)C2)CC1.O=C(O)C(F)(F)F.O=C(O)C(F)(F)F.O=C(O)C(F)(F)F (stereo unspecified) the screen gave Leishmania in macrophages: 32.4%. Cc1nsc(N2CCN(C(=O)Nc3cccc(C#N)c3)CC2)n1 read MtTrpRS: -4.054%; Leishmania in macrophages: -0.5074%; TcHisRS: 7.263%.

Result for COC(=O)C1(C)CCN(C(=O)NCCc2c(C)[nH]c3ccccc23)C1 (stereo unspecified) was MtTrpRS: -1.503%; Leishmania in macrophages: 13.54%; TcHisRS: -0.578%. CC(C)(NCc1cccc(C(N)=O)c1)c1ccc2c(c1)OCO2 gave MtTrpRS: -1.262%; Leishmania in macrophages: 19.9%; TcHisRS: 3.922%. With CCN(CC)C1CCN(C(=O)NCc2cccc(-n3cccn3)c2)C1 (stereo unspecified) the screen gave MtTrpRS: -0.1971%; Leishmania in macrophages: 20.38%; TcHisRS: 1.327%. CS(=O)(=O)NCc1cc(=O)n2c(n1)CN(CC1CC1)CCC2.O=C(O)C(F)(F)F read Leishmania in macrophages: 5.331%.

Cc1cc(C)n(CCNCc2cc(-c3ccccc3)c[nH]c2=O)n1 gave MtTrpRS: -2.514%; Leishmania in macrophages: 29.38%; TcHisRS: 5.429%. Cc1cnn(CC(C)NCc2ccc(S(C)(=O)=O)cc2)c1 (stereo unspecified) read MtTrpRS: -1.267%; Leishmania in macrophages: -6.532%; TcHisRS: -0.3759%. For CC(C)(C)S(=O)(=O)CCNC(=O)c1ccc2cc[nH]c2c1 the result was MtTrpRS: -1.774%; Leishmania in macrophages: -7.57%; TcHisRS: 7.522%. CCSc1cc(C(=O)N(C(C)C)C2CC2)ccn1 read MtTrpRS: 1.067%; Leishmania in macrophages: 9.091%; TcHisRS: 0%.

N#Cc1ccc(CNCC2(c3ccccc3)CCOCC2)cc1 gave MtTrpRS: 0.3079%; TcHisRS: 13.4%. COCC(=O)N1CCCC1(C)c1nc(C)cc(O)n1 (stereo unspecified) gave MtTrpRS: -3.294%; Leishmania in macrophages: 16.75%; TcHisRS: 4.563%. Result for COCCNc1nc(C)nc2c1CCN(C[C@H]1CC[C@@H](N)CC1)CC2 was MtTrpRS: 3.52%; Leishmania in macrophages: -45.3%; TcHisRS: 3.483%. For Cc1ccc(CS(=O)(=O)N2Cc3c(CN(C)C)nn(C)c3C2)cc1.O=C(O)C(F)(F)F the result was Leishmania in macrophages: 15.48%.

CN(Cc1cc2c(cc1OC(F)F)OCO2)Cc1nccn1C read MtTrpRS: -0.3353%; Leishmania in macrophages: 18.58%; TcHisRS: -0.8475%. CCOc1ccccc1N1CCN(c2nnc(C)o2)CC1 gave MtTrpRS: -4.387%; Leishmania in macrophages: 42.81%; TcHisRS: 3.03%. Result for O=C(c1ccnc(C2CCNCC2)c1)N1CCCC(CO)C1 (stereo unspecified) was MtTrpRS: 1.131%; Leishmania in macrophages: 3.69%; TcHisRS: 3.143%. For Cc1nc(C)c(C(=O)Nc2cccc(CN3CCC(CO)CC3)c2)o1 the result was MtTrpRS: 0.2945%; Leishmania in macrophages: 42.57%; TcHisRS: 3.015%.

Cc1sc2ncnc(N3CCC(N(C)Cc4cnn(C)c4)CC3)c2c1C gave MtTrpRS: -0.4504%; Leishmania in macrophages: 50.06%; TcHisRS: 2.632%. O=C(c1c[nH]cn1)N1CCC(F)(F)C2(CCN(c3cnccn3)C2)C1 (stereo unspecified) gave MtTrpRS: -5.976%; TcHisRS: 5.376%. CC1=Nc2c(c(=O)[nH]n2C2CCOCC2)C(c2cccc(Br)c2)S1 (stereo unspecified) read MtTrpRS: -3.819%; Leishmania in macrophages: 1.663%; TcHisRS: -4.918%. Result for O=C(O)C(F)(F)F.[H][C@@]12COC[C@]1(CNC(=O)c1ccsc1)CN(Cc1cccs1)C2 was Leishmania in macrophages: 15.95%.

CC(C)NC(=O)NC[C@H]1OC[C@@H](NCc2ccc(F)cc2)[C@@H]1O read MtTrpRS: 3.067%; Leishmania in macrophages: -0.9032%; TcHisRS: -4.478%. For CCc1nc(CN(C)C2CCN(CCc3ccncc3)C2)no1 (stereo unspecified) the result was MtTrpRS: 1.298%; Leishmania in macrophages: 23.01%; TcHisRS: 4.611%. Result for O=C(NCc1nnc2n1CCCC2)N(Cc1ccccc1F)C1CC1 was MtTrpRS: -2.709%; Leishmania in macrophages: 21.29%; TcHisRS: 2.5%. CCc1cn[nH]c1C1CCN(C(=O)c2cccc(O)c2C)CC1 gave MtTrpRS: -2.023%; Leishmania in macrophages: 6.911%; TcHisRS: 3.743%.

COCc1nc(CNC2CCSC2)no1 (stereo unspecified) read MtTrpRS: -1.215%; Leishmania in macrophages: 2.955%; TcHisRS: 2.041%. Cc1ccc(-c2nc(CNC3CCc4ncnn4C3)co2)cc1 (stereo unspecified) read MtTrpRS: -0.779%; Leishmania in macrophages: 8.481%; TcHisRS: 4.023%. For Cc1cnccc1-c1cc(NCCO)nc2[nH]ccc12 the result was MtTrpRS: 19.31%; Leishmania in macrophages: -15.81%; TcHisRS: -5.319%. Result for O=C(Cc1ccc2c(c1)OCC2)Nc1nc(C(F)(F)F)n[nH]1 was MtTrpRS: -0.3163%; Leishmania in macrophages: 11.06%; TcHisRS: 11%.

For CCNC(=O)NC(=O)CN1CCCC1c1nc(C2CCCCC2)co1 (stereo unspecified) the result was MtTrpRS: -5.882%; Leishmania in macrophages: 16.4%; TcHisRS: 2.762%. Result for CNC(=O)[C@H]1C[C@@H]2CN(S(=O)(=O)c3ccccc3)C[C@@H]2N1C(C)=O was MtTrpRS: -1.74%; TcHisRS: -0.8368%. CN1C(=O)[C@H]2CC[C@@H]1CN(Cc1cccc(OCc3ccccn3)c1)C2 gave MtTrpRS: -2.064%; TcHisRS: 9.211%.

The last 3 entries again:

{"compound": "CCNC(=O)NC(=O)CN1CCCC1c1nc(C2CCCCC2)co1", "stereo": "stereo unspecified", "MtTrpRS": -5.882, "Leishmania in macrophages": 16.4, "TcHisRS": 2.762}
{"compound": "CNC(=O)[C@H]1C[C@@H]2CN(S(=O)(=O)c3ccccc3)C[C@@H]2N1C(C)=O", "MtTrpRS": -1.74, "TcHisRS": -0.8368}
{"compound": "CN1C(=O)[C@H]2CC[C@@H]1CN(Cc1cccc(OCc3ccccn3)c1)C2", "MtTrpRS": -2.064, "TcHisRS": 9.211}